These are yes or no findings as the source states them, for the method shown. A result given as binding can be weak or reduced; the word gives no strength.
What was measured:
TyeA (Y. pestis) = TyeA (Y. pestis) (UniProt P69968); assay: two-hybrid
YpCD1.15c (Y. pestis) = target: T1, YpCD1.15c (Y. pestis) (UniProt Q9RI22); assay: two-hybrid
T1 sequence: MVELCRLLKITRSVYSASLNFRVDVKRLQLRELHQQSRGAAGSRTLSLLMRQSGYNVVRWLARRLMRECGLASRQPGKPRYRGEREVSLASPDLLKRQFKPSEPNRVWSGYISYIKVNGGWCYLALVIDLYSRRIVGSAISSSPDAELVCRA

Protein sequences, listed by entry. Tags and fused reporters are not part of them.
UniProt P69968: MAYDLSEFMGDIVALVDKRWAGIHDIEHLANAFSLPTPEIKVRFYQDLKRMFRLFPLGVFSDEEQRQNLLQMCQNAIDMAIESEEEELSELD

In the case of YpCD1.16c (from UniProt Q7ARJ6), the binding (TyeA (Y. pestis)) is reported as “binds” and the binding (YpCD1.15c (Y. pestis)) is reported as “binds”.
